# Reference: the supplement of paper PMC10849652
# Protein sequences, listed by entry. Tags and fused reporters are not part of them. Lines headed by an entry give the natural chain unless they say otherwise; changes in a name come on top.
# UniProt Q96EC8: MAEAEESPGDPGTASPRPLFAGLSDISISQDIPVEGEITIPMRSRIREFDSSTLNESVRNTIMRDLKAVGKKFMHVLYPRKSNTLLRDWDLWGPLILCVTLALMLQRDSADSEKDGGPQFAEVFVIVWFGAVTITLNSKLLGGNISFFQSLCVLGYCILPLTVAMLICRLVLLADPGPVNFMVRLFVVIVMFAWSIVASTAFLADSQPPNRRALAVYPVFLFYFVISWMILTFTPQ
# UniProt Q04917: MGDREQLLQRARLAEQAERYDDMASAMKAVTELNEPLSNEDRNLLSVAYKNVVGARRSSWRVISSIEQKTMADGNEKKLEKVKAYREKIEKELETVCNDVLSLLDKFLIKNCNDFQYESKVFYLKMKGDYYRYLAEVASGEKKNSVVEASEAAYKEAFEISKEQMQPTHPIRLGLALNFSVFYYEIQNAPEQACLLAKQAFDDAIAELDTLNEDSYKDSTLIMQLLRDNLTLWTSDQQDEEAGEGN
# UniProt Q9NYG2: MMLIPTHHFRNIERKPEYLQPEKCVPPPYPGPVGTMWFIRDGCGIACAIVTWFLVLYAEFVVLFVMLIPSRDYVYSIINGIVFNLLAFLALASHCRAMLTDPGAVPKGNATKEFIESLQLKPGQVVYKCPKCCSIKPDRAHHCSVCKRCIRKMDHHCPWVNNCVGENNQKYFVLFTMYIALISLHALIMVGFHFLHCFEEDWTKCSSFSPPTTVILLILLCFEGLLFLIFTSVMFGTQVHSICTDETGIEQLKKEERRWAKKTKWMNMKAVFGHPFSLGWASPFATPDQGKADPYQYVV
# UniProt O15498: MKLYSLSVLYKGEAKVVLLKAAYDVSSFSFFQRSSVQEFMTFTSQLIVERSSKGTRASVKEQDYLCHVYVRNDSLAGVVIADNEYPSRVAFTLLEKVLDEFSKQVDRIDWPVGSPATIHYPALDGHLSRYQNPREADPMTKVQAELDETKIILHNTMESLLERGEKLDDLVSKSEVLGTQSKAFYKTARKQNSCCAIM
# UniProt P25490, whole entry, looked up: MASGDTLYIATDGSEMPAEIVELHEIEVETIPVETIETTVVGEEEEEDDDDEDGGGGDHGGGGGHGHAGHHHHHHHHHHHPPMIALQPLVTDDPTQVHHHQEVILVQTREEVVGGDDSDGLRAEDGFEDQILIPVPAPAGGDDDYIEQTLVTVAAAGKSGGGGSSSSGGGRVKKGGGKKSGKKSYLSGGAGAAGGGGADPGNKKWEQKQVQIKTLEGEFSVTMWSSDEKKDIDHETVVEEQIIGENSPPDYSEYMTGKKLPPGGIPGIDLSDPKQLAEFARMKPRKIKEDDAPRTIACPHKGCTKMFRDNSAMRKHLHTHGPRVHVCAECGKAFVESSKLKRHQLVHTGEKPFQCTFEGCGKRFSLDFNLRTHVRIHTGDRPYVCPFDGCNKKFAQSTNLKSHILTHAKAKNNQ
# UniProt P61981: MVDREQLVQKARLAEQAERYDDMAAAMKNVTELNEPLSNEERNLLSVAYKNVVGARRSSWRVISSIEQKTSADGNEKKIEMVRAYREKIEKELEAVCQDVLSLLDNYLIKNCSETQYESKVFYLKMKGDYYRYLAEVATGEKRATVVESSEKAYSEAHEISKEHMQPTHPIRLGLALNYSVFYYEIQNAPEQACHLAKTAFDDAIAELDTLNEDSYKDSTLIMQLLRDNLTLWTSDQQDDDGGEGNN
# UniProt Q13426: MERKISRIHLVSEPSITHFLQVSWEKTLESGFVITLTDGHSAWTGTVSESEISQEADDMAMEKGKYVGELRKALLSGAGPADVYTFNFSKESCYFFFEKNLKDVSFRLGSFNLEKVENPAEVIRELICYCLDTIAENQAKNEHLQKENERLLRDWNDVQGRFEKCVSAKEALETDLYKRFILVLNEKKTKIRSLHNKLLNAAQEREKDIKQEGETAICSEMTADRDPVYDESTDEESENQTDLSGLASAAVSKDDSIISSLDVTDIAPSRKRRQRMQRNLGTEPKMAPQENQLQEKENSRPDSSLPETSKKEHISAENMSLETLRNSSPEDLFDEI
# UniProt O96006: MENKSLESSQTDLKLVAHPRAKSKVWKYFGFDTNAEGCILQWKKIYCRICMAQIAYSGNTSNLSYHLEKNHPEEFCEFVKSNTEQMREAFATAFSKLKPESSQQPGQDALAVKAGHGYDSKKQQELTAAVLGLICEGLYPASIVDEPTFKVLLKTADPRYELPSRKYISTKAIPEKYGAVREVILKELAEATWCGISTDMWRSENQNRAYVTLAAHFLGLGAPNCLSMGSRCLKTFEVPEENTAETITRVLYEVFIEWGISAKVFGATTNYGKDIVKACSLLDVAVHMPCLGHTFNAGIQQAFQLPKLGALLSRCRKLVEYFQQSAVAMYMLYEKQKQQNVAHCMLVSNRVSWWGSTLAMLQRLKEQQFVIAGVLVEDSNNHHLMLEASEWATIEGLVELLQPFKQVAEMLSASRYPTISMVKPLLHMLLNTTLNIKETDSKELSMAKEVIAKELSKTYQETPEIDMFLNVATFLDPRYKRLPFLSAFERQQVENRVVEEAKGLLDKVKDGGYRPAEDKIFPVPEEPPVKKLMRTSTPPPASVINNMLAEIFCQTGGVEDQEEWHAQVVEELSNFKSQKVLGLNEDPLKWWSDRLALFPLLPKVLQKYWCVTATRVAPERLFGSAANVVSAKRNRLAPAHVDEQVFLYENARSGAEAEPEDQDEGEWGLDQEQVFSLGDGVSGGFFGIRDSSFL
# UniProt O14980, whole entry, looked up: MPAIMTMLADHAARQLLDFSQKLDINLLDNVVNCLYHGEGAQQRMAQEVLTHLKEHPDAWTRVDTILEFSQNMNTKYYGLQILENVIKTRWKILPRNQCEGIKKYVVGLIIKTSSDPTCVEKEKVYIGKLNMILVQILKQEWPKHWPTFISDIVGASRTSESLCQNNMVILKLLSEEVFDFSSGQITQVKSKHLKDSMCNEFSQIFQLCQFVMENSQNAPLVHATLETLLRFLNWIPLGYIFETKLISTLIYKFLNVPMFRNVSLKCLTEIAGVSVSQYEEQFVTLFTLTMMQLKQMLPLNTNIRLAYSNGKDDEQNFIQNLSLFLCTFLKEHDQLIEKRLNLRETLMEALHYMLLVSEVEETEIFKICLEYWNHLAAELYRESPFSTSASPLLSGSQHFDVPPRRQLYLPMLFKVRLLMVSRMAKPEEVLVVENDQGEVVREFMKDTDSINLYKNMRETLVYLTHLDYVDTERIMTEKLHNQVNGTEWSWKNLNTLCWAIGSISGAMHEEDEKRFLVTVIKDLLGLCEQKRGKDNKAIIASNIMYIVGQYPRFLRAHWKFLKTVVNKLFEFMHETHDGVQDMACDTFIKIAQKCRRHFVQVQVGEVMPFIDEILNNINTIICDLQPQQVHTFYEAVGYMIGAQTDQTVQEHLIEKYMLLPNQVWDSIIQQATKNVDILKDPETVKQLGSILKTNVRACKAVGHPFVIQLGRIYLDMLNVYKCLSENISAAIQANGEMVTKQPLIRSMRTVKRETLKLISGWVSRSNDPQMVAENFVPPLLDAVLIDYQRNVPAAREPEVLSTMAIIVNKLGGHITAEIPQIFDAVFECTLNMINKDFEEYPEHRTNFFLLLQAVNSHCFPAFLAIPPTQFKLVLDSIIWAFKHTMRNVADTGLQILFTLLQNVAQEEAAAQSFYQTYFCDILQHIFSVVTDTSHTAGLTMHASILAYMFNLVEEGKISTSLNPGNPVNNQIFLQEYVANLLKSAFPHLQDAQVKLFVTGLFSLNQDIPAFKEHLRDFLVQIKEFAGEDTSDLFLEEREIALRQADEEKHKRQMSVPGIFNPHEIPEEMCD
# UniProt Q9C0B5: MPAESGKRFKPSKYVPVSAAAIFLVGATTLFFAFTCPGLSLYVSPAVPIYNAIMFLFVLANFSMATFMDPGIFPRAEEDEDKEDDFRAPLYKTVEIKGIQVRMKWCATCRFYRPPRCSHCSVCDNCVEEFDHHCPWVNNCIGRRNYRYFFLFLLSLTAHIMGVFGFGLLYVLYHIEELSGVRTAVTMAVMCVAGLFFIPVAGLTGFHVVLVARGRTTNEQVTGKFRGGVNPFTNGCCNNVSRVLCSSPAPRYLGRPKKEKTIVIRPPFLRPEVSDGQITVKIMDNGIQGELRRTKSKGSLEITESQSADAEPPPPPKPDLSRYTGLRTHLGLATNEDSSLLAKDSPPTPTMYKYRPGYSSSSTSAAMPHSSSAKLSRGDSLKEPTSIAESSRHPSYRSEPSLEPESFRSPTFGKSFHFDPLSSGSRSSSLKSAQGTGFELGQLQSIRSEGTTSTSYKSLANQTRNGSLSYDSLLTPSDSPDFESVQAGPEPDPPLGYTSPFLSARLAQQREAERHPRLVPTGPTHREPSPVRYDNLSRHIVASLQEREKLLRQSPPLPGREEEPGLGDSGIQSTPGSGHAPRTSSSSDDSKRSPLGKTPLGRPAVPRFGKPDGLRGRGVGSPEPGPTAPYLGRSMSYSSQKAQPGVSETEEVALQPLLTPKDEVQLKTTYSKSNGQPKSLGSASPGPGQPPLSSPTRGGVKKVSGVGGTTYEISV
# UniProt Q9GZM5: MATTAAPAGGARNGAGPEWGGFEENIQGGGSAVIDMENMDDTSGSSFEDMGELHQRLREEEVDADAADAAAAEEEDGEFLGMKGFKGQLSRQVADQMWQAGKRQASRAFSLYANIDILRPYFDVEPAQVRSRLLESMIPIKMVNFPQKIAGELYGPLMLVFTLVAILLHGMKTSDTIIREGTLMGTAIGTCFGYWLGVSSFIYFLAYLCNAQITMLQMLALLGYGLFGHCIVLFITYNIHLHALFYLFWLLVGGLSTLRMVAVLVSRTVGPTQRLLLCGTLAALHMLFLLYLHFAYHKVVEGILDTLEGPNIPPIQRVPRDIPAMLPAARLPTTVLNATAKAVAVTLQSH
# UniProt Q9H6S0: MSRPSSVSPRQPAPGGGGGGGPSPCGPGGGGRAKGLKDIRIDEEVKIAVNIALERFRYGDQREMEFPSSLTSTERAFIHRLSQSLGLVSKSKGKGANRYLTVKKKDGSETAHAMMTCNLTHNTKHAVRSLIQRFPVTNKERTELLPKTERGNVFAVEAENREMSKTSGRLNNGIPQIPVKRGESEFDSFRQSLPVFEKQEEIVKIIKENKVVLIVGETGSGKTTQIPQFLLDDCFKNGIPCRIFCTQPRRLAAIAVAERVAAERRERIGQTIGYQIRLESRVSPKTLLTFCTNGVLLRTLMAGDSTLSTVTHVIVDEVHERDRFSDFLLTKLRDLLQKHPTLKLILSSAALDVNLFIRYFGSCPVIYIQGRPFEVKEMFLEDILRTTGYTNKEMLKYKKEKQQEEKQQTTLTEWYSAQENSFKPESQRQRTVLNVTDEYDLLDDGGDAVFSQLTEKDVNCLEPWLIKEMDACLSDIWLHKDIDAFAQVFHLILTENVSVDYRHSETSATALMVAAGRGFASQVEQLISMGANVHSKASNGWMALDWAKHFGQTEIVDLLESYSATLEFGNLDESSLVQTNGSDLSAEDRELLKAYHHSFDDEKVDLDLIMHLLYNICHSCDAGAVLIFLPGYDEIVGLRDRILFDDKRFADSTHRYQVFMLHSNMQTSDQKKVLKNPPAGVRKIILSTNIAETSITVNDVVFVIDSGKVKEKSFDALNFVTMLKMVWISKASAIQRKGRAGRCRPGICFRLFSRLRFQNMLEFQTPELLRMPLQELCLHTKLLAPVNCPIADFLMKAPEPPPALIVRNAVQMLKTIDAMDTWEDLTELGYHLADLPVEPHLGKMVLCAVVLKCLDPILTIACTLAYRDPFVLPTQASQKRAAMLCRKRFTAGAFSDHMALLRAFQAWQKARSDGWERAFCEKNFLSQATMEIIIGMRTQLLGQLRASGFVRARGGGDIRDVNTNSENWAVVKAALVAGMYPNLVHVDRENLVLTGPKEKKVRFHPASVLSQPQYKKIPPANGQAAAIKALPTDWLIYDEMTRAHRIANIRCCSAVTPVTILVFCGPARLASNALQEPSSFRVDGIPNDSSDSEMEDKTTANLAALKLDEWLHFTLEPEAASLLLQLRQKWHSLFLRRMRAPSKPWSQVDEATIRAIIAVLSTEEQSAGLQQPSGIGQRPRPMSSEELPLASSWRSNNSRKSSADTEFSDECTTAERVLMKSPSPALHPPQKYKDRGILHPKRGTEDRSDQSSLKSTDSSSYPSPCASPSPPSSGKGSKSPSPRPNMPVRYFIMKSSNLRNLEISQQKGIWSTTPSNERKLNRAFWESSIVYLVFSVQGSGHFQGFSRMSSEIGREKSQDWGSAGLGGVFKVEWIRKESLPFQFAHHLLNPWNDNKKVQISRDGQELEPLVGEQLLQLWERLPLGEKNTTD
# UniProt P62258: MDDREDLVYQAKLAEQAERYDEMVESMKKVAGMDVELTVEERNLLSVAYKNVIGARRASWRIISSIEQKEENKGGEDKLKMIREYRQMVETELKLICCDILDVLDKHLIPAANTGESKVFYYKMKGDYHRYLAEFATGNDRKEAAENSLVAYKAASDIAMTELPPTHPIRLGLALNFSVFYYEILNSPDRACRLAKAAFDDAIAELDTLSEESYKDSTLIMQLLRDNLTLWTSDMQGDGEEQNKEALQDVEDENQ
# The list shows a part of the results.
# Assays:
# Experiment in all cases: log2 fold change, soluble protein after heating vs DMSO (PISA); higher = thermal stabilisation; K562 lysate, 10 uM; active = over 0.2 and 3.5 SD of the protein, either way, in both replicates (recomputed)
# [1] = compound: C=CC(=O)N1CCC[C@@H](n2nc(-c3ccc(Oc4ccccc4)cc3)c3c(N)ncnc32)C1 [ibrutinib]
# Procedure, shortened: (§1)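 Soluble protein was defined as the supernatant remaining after 21,000xg for 90 min, following pooling of heated aliquots and adjustment to 0.5% NP-40 at 4°C. Before that, crude K562 extract at 1 mg/mL protein in PBS pH 7.4 with 1 mM MgCl2 was treated with 10 μM compound for 30 min and heated for 3 min across 48°C-58°C. Quantification used TMTpro 16plex LC-MS/MS with channel sums equalised, and values are log-two fold changes in thermal stability relative to solvent controls from duplicates.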
# [2] = compound: CC(=O)c1cnc2ccc(-c3cc(Cl)c(O)c(Cl)c3)nc2c1N[C@H]1CC[C@H](CN(C)C)CC1
# Procedure, shortened: as §1
# [3] = compound: CC(C)(C)Cn1c(N)nc2ccc(-c3[nH]c(C(C)(C)C)nc3-c3ccc(F)cc3)nc21 [ralimetinib]
# Procedure, shortened: as §1
# [4] = compound: CC(C)(O)CC(=O)NCCn1ccc2ncnc(Nc3ccc(Oc4cccc(C(F)(F)F)c4)c(Cl)c3)c21
# Procedure, shortened: as §1
# [5] = compound: CC(C)C1=C2N=C(C=C(N2N=C1)NCC3=CC=CC=C3)NCCCCCCN
# Procedure, shortened: as §1
# [6] = compound: CC1=C(C(CC(=O)N1)C2=CC=C(C=C2)C(F)(F)F)C(=O)NC3=C(C=C4C(=C3)C=NN4)F
# Procedure, shortened: as §1
# [7] = compound: CC1=C(C2=C(C=C1)C(=O)C3=CC=CC=C3N2CCCN)C
# Procedure, shortened: as §1
# [8] = compound: CC1=C(C=C(C=C1)NC(=O)C2=CC(=CC=C2)C(C)(C)C#N)NC3=CC4=C(C=C3)N=CN(C4=O)C
# Procedure, shortened: as §1
# [9] = compound: CC1=C(C=C(C=C1)NC(=O)C2=CC(=CC=C2)N(C)C)NC(=O)C3=CC=C(C=C3)O
# Procedure, shortened: as §1
# [10] = compound: CC1=CC=C(C=C1)SC2=C3C=C(SC3=CN=C2)C(=O)N
# Procedure, shortened: as §1
Target,log2 fold change [1],log2 fold change [2],log2 fold change [3],log2 fold change [4],log2 fold change [5],log2 fold change [6],log2 fold change [7],log2 fold change [8],log2 fold change [9],log2 fold change [10]
YIPF6 (UniProt Q96EC8),inactive: -0.072,inactive: 0.044,inactive: 0.065,inactive: -0.173,inactive: -0.034,inactive: 0.065,inactive: -0.007,inactive: -0.008,inactive: 0.029,inactive: -0.023
YWHAH (UniProt Q04917),inactive: 0.001,inactive: -0.001,inactive: -0.039,inactive: 0.017,inactive: 0.032,inactive: 0.013,inactive: 0.004,inactive: -0.051,inactive: 0.012,inactive: 0.012
ZDHHC3 isoform 2 (UniProt Q9NYG2),inactive: 0.055,inactive: 0.043,inactive: 0,inactive: -0.121,inactive: -0.043,inactive: 0.082,inactive: 0.152,inactive: 0.051,inactive: 0.03,inactive: 0
YKT6 (UniProt O15498),inactive: -0.01,inactive: 0.02,inactive: -0.011,inactive: -0.003,inactive: -0.033,inactive: 0,inactive: 0.001,inactive: -0.013,inactive: -0.021,inactive: -0.029
ZC3H8 (UniProt Q8N5P1),inactive: 0.057,inactive: -0.042,inactive: 0.058,inactive: -0.005,inactive: 0.005,inactive: -0.078,inactive: -0.044,inactive: 0.018,inactive: -0.023,inactive: 0.074
ZC3H4 (UniProt Q9UPT8),inactive: 0.02,inactive: -0.04,inactive: -0.011,inactive: -0.041,inactive: 0.003,inactive: -0.007,inactive: -0.095,inactive: 0.093,inactive: 0.024,inactive: -0.022
YY1 (UniProt P25490),inactive: 0.005,inactive: 0.056,inactive: 0.017,inactive: 0.043,inactive: -0.035,inactive: 0.025,inactive: 0.022,inactive: -0.012,inactive: -0.008,inactive: 0.029
ZFP91 (UniProt Q96JP5),inactive: 0.022,inactive: -0.05,inactive: 0.071,inactive: -0.017,inactive: 0.03,inactive: 0,inactive: -0.04,inactive: 0.096,inactive: 0.042,inactive: -0.065
YWHAG (UniProt P61981),inactive: 0.001,inactive: -0.002,inactive: -0.037,inactive: 0.01,inactive: -0.025,inactive: -0.017,inactive: 0.007,inactive: 0.01,inactive: 0.008,inactive: -0.007
XRCC4 (UniProt Q13426),inactive: 0.056,inactive: -0.007,inactive: 0,inactive: -0.055,inactive: -0.042,inactive: -0.021,inactive: 0.009,inactive: -0.035,inactive: 0.009,inactive: 0
ZDHHC4 (UniProt Q9NPG8),inactive: 0.062,inactive: 0.082,inactive: -0.059,inactive: -0.088,inactive: 0.249,inactive: -0.024,inactive: -0.101,inactive: -0.075,inactive: 0.099,inactive: -0.236
YIPF4 (UniProt Q9BSR8),inactive: 0.011,inactive: -0.054,inactive: -0.031,inactive: -0.029,inactive: -0.011,inactive: 0.025,inactive: -0.015,inactive: 0.013,inactive: 0.023,inactive: 0.073
ZBED1 (UniProt O96006),inactive: 0.104,inactive: 0.004,inactive: -0.012,inactive: 0.017,inactive: -0.032,inactive: 0.006,inactive: 0.046,inactive: -0.02,inactive: 0.017,inactive: -0.077
ZBED8 (UniProt Q8IZ13),inactive: 0.054,inactive: -0.011,inactive: 0.039,inactive: -0.041,inactive: 0.025,inactive: 0.027,inactive: -0.01,inactive: 0.023,inactive: -0.06,inactive: 0.022
YTHDF3 (UniProt Q7Z739),inactive: -0.026,inactive: 0.066,inactive: -0.014,inactive: -0.033,inactive: 0.008,inactive: 0.017,inactive: 0.074,active: -0.334,inactive: 0.009,inactive: 0.096
XPO1 (UniProt O14980),inactive: -0.01,inactive: 0.008,inactive: 0.029,inactive: -0.037,inactive: -0.01,inactive: -0.007,inactive: 0.035,inactive: -0.004,inactive: 0.02,inactive: 0.019
ZDHHC5 (UniProt Q9C0B5),inactive: 0.02,inactive: -0.032,inactive: 0.028,inactive: -0.012,inactive: -0.032,inactive: -0.033,inactive: -0.033,inactive: 0.004,inactive: 0.004,inactive: -0.034
ZFYVE28 (UniProt Q9HCC9),inactive: -0.021,inactive: -0.028,inactive: 0.019,inactive: -0.023,inactive: -0.068,inactive: 0.044,inactive: 0.073,inactive: 0.024,inactive: -0.154,inactive: 0.124
YIPF3 (UniProt Q9GZM5),inactive: -0.005,inactive: -0.029,inactive: 0.008,inactive: -0.024,inactive: -0.019,inactive: 0.033,inactive: -0.023,inactive: -0.033,inactive: 0.041,inactive: 0.001
ZFPM1 (UniProt Q8IX07),inactive: 0.004,inactive: -0.034,inactive: 0.013,inactive: -0.067,inactive: 0.02,inactive: 0.01,inactive: 0.003,inactive: 0.033,inactive: 0,inactive: -0.026
XRCC6 (UniProt P12956),inactive: -0.032,inactive: -0.011,inactive: -0.006,inactive: -0.029,inactive: -0.007,inactive: 0.001,inactive: 0.041,inactive: 0.007,inactive: 0.002,inactive: -0.006
XPO4 (UniProt Q9C0E2),inactive: 0.012,inactive: 0.02,inactive: 0.053,inactive: 0.004,inactive: -0.024,inactive: -0.013,inactive: 0.014,inactive: -0.011,inactive: 0.031,inactive: 0.004
ZC3H14 (UniProt Q6PJT7),inactive: -0.011,inactive: -0.019,inactive: -0.005,inactive: -0.036,inactive: 0.002,inactive: 0.02,inactive: 0.019,inactive: 0.01,inactive: 0.025,inactive: -0.023
XPOT (UniProt O43592),inactive: -0.012,inactive: 0.009,inactive: 0.006,inactive: -0.038,inactive: -0.014,inactive: 0,inactive: 0.013,inactive: 0.016,inactive: 0.007,inactive: 0.018
ZFYVE9 (UniProt O95405),inactive: 0.023,inactive: -0.045,inactive: -0.022,inactive: -0.015,inactive: 0.002,inactive: -0.031,inactive: -0.046,inactive: -0.009,inactive: 0.02,inactive: 0.034
YWHAQ (UniProt P27348),inactive: -0.011,inactive: -0.001,inactive: -0.007,inactive: 0.028,inactive: 0,inactive: -0.054,inactive: 0.007,inactive: -0.001,inactive: 0.01,inactive: 0.01
YTHDC2 (UniProt Q9H6S0),inactive: 0.003,inactive: 0.009,inactive: 0.061,inactive: 0.021,inactive: 0.013,inactive: 0.003,inactive: -0.023,inactive: -0.003,inactive: 0.019,inactive: -0.018
ZC3HC1 (UniProt Q86WB0),inactive: -0.021,inactive: 0.013,inactive: 0.033,inactive: -0.004,inactive: -0.003,inactive: 0.012,inactive: 0.004,inactive: -0.002,inactive: 0.006,inactive: 0.013
YWHAE (UniProt P62258),inactive: 0.017,inactive: -0.007,inactive: 0.004,inactive: -0.01,inactive: -0.02,inactive: -0.025,inactive: 0.009,inactive: 0.006,inactive: 0.001,inactive: -0.027

# In another format: entries from further up.
Target	log2 fold change [1]	log2 fold change [2]	log2 fold change [3]	log2 fold change [4]	log2 fold change [5]	log2 fold change [6]	log2 fold change [7]	log2 fold change [8]	log2 fold change [9]	log2 fold change [10]
YIPF3 (UniProt Q9GZM5)	inactive: -0.005	inactive: -0.029	inactive: 0.008	inactive: -0.024	inactive: -0.019	inactive: 0.033	inactive: -0.023	inactive: -0.033	inactive: 0.041	inactive: 0.001
YWHAE (UniProt P62258)	inactive: 0.017	inactive: -0.007	inactive: 0.004	inactive: -0.01	inactive: -0.02	inactive: -0.025	inactive: 0.009	inactive: 0.006	inactive: 0.001	inactive: -0.027
